This note sets out measurements from publication PMC12690528.

Chains of the proteins cited; added tags and fusions are not shown.
UniProt P15409: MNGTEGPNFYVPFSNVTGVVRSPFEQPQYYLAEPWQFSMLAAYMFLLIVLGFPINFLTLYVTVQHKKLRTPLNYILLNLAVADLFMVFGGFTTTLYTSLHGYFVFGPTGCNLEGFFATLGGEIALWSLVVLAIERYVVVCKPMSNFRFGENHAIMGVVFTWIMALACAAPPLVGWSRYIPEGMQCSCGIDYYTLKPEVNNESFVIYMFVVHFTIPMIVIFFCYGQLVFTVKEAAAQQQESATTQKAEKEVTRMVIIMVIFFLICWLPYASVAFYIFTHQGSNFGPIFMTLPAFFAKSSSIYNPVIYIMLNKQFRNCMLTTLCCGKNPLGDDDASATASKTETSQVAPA
UniProt P35279: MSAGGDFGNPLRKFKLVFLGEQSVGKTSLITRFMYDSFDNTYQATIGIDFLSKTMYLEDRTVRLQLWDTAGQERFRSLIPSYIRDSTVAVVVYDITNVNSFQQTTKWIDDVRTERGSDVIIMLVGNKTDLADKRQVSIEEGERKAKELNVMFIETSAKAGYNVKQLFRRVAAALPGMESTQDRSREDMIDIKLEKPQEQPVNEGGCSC

No constants are given. Whether binding was seen depends on the method and setting. Binding seen in cells or lysates may run through a third protein. Some entries that bind do so weakly or less than the wild type.

The target of this test is rhodopsin (Rho) (mouse (endogenous in WT mouse retina)) (UniProt P15409). Put plainly: co-IP; WT mouse retina lysate in T-PER buffer; Rho captured on 1D4 antibody-conjugated Sepharose beads, 12-16 h at 4°C; washed in PBS + 0.1% Tween-20; western blot. For orientation: In western blotting, separated proteins are transferred to a membrane and probed.

Rab6a (from UniProt P35279 1-208): the binding entry is reported as “binds”.

B1: phosducin (Pdc) (protein, UniProt Q9QW08 1-244)
chain: MEEAASQSLEEDFEGQATHTGPKGVINDWRKFKLESEDGDSIPPSKKEILRQMSSPQSRDDSKERMSRKMSIQEYELIHQDKEDESCLRKYRRQCMQDMHQKLSFGPRYGFVYELETGEQFLETIEKEQKVTTIVVNIYEDGVRGCDALNSSLACLAVEYPMVKFCKIKASNTGAGDRFSTDVLPTLLVYKGGELISNFISVAEQFAEEFFAVDVESFLNEYGLLPEREIHDLEQTNMEDEDIE
On to B1, for which the binding entry is reported as “no binding”.
